Values quoted from earlier work in patent publication US20210395309A1, “PEPTIDE-DRUG CONJUGATES” (Hong Kong Baptist University, priority 2020, published 2021).
Values after ≈ are worked out from the molar mass of the structure shown.

Details: cited from earlier work

CC(=O)O[C@H]1C(=O)[C@@]2(C)[C@H]([C@H](OC(=O)c3ccccc3)[C@]3(O)C[C@H](OC(=O)[C@H](O)[C@@H](NC(=O)c4ccccc4)c4ccccc4)C(C)=C1C3(C)C)[C@]1(OC(C)=O)CO[C@@H]1C[C@@H]2O [PTX, Paclitaxel]
aqueous solubility: 0.07 µg/mL (≈ 0.082 µM)
